Measured data: PubChem BioAssay AID1259327 (Drosophila RNAi Screening Center, 2017)
Here is a random part of about 3,100 deposited reagents. In the full data, 378 (12%) got an active call. 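Hits include both directions; z-score sign shows ATP rise or fall; raw luminescence values are not plate-normalised.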 Not given: the amount of reagent.

Purpose: 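Baseline ATP after transmembrane-protein gene knock-down with water vehicle only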
Cell system: Drosophila S2R+ cells
Reagent: long dsRNA against Drosophila genes
Time to read-out: 5 days (water added on day 4, read one day later)
Challenge: water added as vehicle, no metal, one day before read-out
Measurement: 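Luciferase ATP signal per well, normalised to plate mean, duplicate average converted to z-score across plates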
Direction: ATP z-score: higher = more total ATP than typical wells; ATP luminescence: higher = more total ATP
Active means: 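Called active when the ATP z-score exceeds 1.5 or falls below -1.5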
Meaning of the calls: active = hit: ATP up or down; inactive = no clear ATP change

What is on record for TrpA1 (Transient receptor potential cation channel A1) [DRSC10544]?
ATP z-score, duplicate mean: -0.256; ATP luminescence, replicate 1 (RLU): 9.06e5; ATP luminescence, replicate 2 (RLU): 8.21e5; call: inactive

What is on record for PGRP-LE (Peptidoglycan recognition protein LE) [DRSC20137]?
ATP z-score, duplicate mean: -0.463; ATP luminescence, replicate 1 (RLU): 6.78e5; ATP luminescence, replicate 2 (RLU): 6.39e5; call: inactive

How did the screen score CG9459 [DRSC16496]?
ATP z-score, duplicate mean: 0.265; ATP luminescence, replicate 1 (RLU): 2.93e5; ATP luminescence, replicate 2 (RLU): 8.37e5; call: inactive

What did the screen give for CG9459 [DRSC39459]?
ATP z-score, duplicate mean: -2.1; ATP luminescence, replicate 1 (RLU): 3.32e5; ATP luminescence, replicate 2 (RLU): 2.97e5; call: active

With Npc1a (Niemann-Pick type C-1a) [DRSC03378], what does the deposit list?
ATP z-score, duplicate mean: 0.328; ATP luminescence, replicate 1 (RLU): 7.95e5; ATP luminescence, replicate 2 (RLU): 7.28e5; call: inactive

With Npc1a (Niemann-Pick type C-1a) [DRSC39428], what was measured?
ATP z-score, duplicate mean: 0.4; ATP luminescence, replicate 1 (RLU): 4.42e5; ATP luminescence, replicate 2 (RLU): 5.15e5; call: inactive

For nebu (nebulosa) [DRSC09807], what was measured?
ATP z-score, duplicate mean: -0.217; ATP luminescence, replicate 1 (RLU): 7.63e5; ATP luminescence, replicate 2 (RLU): 6.51e5; call: inactive

What is on record for nebu (nebulosa) [DRSC09808]?
ATP z-score, duplicate mean: 0.282; ATP luminescence, replicate 1 (RLU): 9.24e5; ATP luminescence, replicate 2 (RLU): 9.41e5; call: inactive

Which result is listed for Pis (Phosphatidylinositol synthase) [DRSC20178]?
ATP z-score, duplicate mean: 2.04; ATP luminescence, replicate 1 (RLU): 8.31e5; ATP luminescence, replicate 2 (RLU): 9.70e5; call: active

With Pis (Phosphatidylinositol synthase) [DRSC29976], what does the deposit list?
ATP z-score, duplicate mean: -0.65; ATP luminescence, replicate 1 (RLU): 4.85e5; ATP luminescence, replicate 2 (RLU): 5.65e5; call: inactive

What did the screen give for SerT (Serotonin transporter) [DRSC04655]?
ATP z-score, duplicate mean: 0.267; ATP luminescence, replicate 1 (RLU): 8.47e5; ATP luminescence, replicate 2 (RLU): 6.64e5; call: inactive

What did the screen give for SerT (Serotonin transporter) [DRSC28934]?
ATP z-score, duplicate mean: -0.648; ATP luminescence, replicate 1 (RLU): 8.06e5; ATP luminescence, replicate 2 (RLU): 6.89e5; call: inactive

For ppk10 (pickpocket 10) [DRSC01123], how do the results read?
ATP z-score, duplicate mean: -0.267; ATP luminescence, replicate 1 (RLU): 6.79e5; ATP luminescence, replicate 2 (RLU): 7.50e5; call: inactive

For Snmp1 (Sensory neuron membrane protein 1) [DRSC16168], what does the deposit list?
ATP z-score, duplicate mean: 0.238; ATP luminescence, replicate 1 (RLU): 2.93e5; ATP luminescence, replicate 2 (RLU): 8.29e5; call: inactive

What did the screen give for Or83c (Odorant receptor 83c) [DRSC12359]?
ATP z-score, duplicate mean: -0.736; ATP luminescence, replicate 1 (RLU): 8.75e5; ATP luminescence, replicate 2 (RLU): 7.27e5; call: inactive

For Or83c (Odorant receptor 83c) [DRSC39535], how do the results read?
ATP z-score, duplicate mean: 2.42; ATP luminescence, replicate 1 (RLU): 6.44e5; ATP luminescence, replicate 2 (RLU): 5.84e5; call: active

How did the screen score GluRIB (Glutamate receptor IB) [DRSC11177]?
ATP z-score, duplicate mean: 1.65; ATP luminescence, replicate 1 (RLU): 1.02e6; ATP luminescence, replicate 2 (RLU): 1.19e6; call: active

How did the screen score GluRIB (Glutamate receptor IB) [DRSC25464]?
ATP z-score, duplicate mean: -0.508; ATP luminescence, replicate 1 (RLU): 8.07e5; ATP luminescence, replicate 2 (RLU): 7.67e5; call: inactive

What did the screen give for CG5906 [DRSC10557]?
ATP z-score, duplicate mean: 0.0793; ATP luminescence, replicate 1 (RLU): 9.53e5; ATP luminescence, replicate 2 (RLU): 8.61e5; call: inactive

For CG31100 [DRSC14453], how do the results read?
ATP z-score, duplicate mean: -0.161; ATP luminescence, replicate 1 (RLU): 2.91e5; ATP luminescence, replicate 2 (RLU): 7.46e5; call: inactive

What did the screen give for CG31100 [DRSC14455]?
ATP z-score, duplicate mean: -0.713; ATP luminescence, replicate 1 (RLU): 2.75e5; ATP luminescence, replicate 2 (RLU): 6.63e5; call: inactive

For Karybeta3 (Karyopherin beta 3) [DRSC12355], what was measured?
ATP z-score, duplicate mean: 0.369; ATP luminescence, replicate 1 (RLU): 7.13e5; ATP luminescence, replicate 2 (RLU): 8.30e5; call: inactive

What did the screen give for Karybeta3 (Karyopherin beta 3) [DRSC39901]?
ATP z-score, duplicate mean: 0.314; ATP luminescence, replicate 1 (RLU): 5.40e5; ATP luminescence, replicate 2 (RLU): 6.90e5; call: inactive

For CG7530 [DRSC25476], how do the results read?
ATP z-score, duplicate mean: -0.687; ATP luminescence, replicate 1 (RLU): 7.86e5; ATP luminescence, replicate 2 (RLU): 7.43e5; call: inactive

With CG7530 [DRSC39584], what was measured?
ATP z-score, duplicate mean: -0.139; ATP luminescence, replicate 1 (RLU): 4.82e5; ATP luminescence, replicate 2 (RLU): 4.29e5; call: inactive

What did the screen give for CG5850 [DRSC02905]?
ATP z-score, duplicate mean: -0.727; ATP luminescence, replicate 1 (RLU): 4.41e5; ATP luminescence, replicate 2 (RLU): 4.14e5; call: inactive

What did the screen give for CG5850 [DRSC39491]?
ATP z-score, duplicate mean: -0.887; ATP luminescence, replicate 1 (RLU): 4.18e5; ATP luminescence, replicate 2 (RLU): 3.72e5; call: inactive

What is on record for PlexB (Plexin B) [DRSC17177]?
ATP z-score, duplicate mean: -1.09; ATP luminescence, replicate 1 (RLU): 7.92e5; ATP luminescence, replicate 2 (RLU): 6.83e5; call: inactive

Which result is listed for CG30394 [DRSC04074]?
ATP z-score, duplicate mean: 0.115; ATP luminescence, replicate 1 (RLU): 7.39e5; ATP luminescence, replicate 2 (RLU): 7.38e5; call: inactive

With CG30394 [DRSC04260], what was measured?
ATP z-score, duplicate mean: -1.06; ATP luminescence, replicate 1 (RLU): 5.44e5; ATP luminescence, replicate 2 (RLU): 6.97e5; call: inactive

Ordered by “ATP z-score, duplicate mean” (highest first): some entries from above
Karybeta3 (Karyopherin beta 3) [DRSC12355] → ATP z-score, duplicate mean = 0.369; ATP luminescence, replicate 1 (RLU) = 7.13e5; ATP luminescence, replicate 2 (RLU) = 8.30e5; call = inactive
CG5906 [DRSC10557] → ATP z-score, duplicate mean = 0.0793; ATP luminescence, replicate 1 (RLU) = 9.53e5; ATP luminescence, replicate 2 (RLU) = 8.61e5; call = inactive
CG31100 [DRSC14453] → ATP z-score, duplicate mean = -0.161; ATP luminescence, replicate 1 (RLU) = 2.91e5; ATP luminescence, replicate 2 (RLU) = 7.46e5; call = inactive
CG31100 [DRSC14455] → ATP z-score, duplicate mean = -0.713; ATP luminescence, replicate 1 (RLU) = 2.75e5; ATP luminescence, replicate 2 (RLU) = 6.63e5; call = inactive
